The campaign covered roughly 340,000 compounds. About 170 (0.05%) were called active. This list was built around the results that the source calls inconclusive (neither active nor inactive); the mix of calls is not that of the screen. Calls follow the shape of the dose curve; as a rule, active = well fitted inhibition curve with a large enough effect in the signal ratio, with a control signal flat (not every such curve was filed as active); inconclusive = small, poorly fitted or top-dose-only effect, or effect the other way, or a change in a side signal; inactive = flat fitted curve, though single readings scatter; the % refers to the signal ratio. Where the call is inconclusive, the potency comes from a doubtful curve fit.
Assay: qHTS Assay to Find Inhibitors of Chronic Active B-Cell Receptor Signaling;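 as to activity change, negative = inhibition: plate controls were basal doxycycline-induced cells for no effect and cells given 10 µM MG132 for full effect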
Settings: ABC-DLBCL IkBa-CBG/CBR reporter, luminescence ratio (green luciferase fused to IkBa over red control in TMD8 lymphoma cells), 4 h; activity change, negative = inhibition: at 46.1 µM (top of the series) unless noted
Outline: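 Concentration-response series (up to 46 uM) were applied to TMD8 dual-reporter cells for 4 h at 37C with doxycycline. Green/red ratio, after filter-overlap correction, defined %Activity; red signal alone was normalised to basal cells and zero luminescence.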
Potency is read from the fitted curve at half-maximal effect.

Row | SMILES | Potency | activity change, negative = inhibition
1 | CSc1ccccc1NC(=O)Cn1nc([N+](=O)[O-])c(Cl)c1C | inconclusive: 35.5 µM [falling, single point] | –
2 | Cn1c(SCC(=O)Nc2ccc3nc(SCC(=O)N4CCCC4)sc3c2)nnc1-c1ccccc1 | – | inactive: -1.86%
3 | Cn1cnc2c(N/N=C/c3cccs3)ncnc21 | – | inconclusive: -16.2%
4 | O=C(NC1=NCCS1)c1nc(-c2ccccc2)n(-c2ccccc2)n1 | inconclusive: 3.66 µM [rising, full curve] | –
5 | Cc1ccc(NC(=O)CSc2nnc(-c3cccnc3)o2)c(C)c1 | inconclusive: 20.6 µM [falling, partial curve, poor fit] | –
6 | O=C(NCC1CCCO1)c1nn2c(C(F)(F)F)cc(-c3cccs3)nc2c1Cl (stereo not given) | – | inactive: -0.373%
7 | COc1ccc(NC(=O)CNCCC2=CCCCC2)cc1 | – | inconclusive: 4.14%
8 | CC(=O)NC(C(=O)OCC(=O)N(c1ccccc1)c1ccccc1)C(C)C (stereo not given) | – | inconclusive: 3.41%
9 | CCC1CCCCN1C(=S)NC1CCCCC1 (stereo not given) | – | inconclusive: 0.0295%
10 | CCOC(=O)c1cnn2c(C(F)F)cc(C3CC3)nc12 | – | inconclusive: 8.97%
11 | O=C(Nc1cccs1)Nc1c(F)c(F)c(F)c(F)c1F | – | inactive: -4.07%
12 | CC(=O)Nc1cccc(NC(=O)c2cc(Cl)ccc2Cl)c1 | inconclusive: 11.2 µM [falling, partial curve, poor fit] | –
13 | O=S(=O)(Nc1ccc(-c2ccc3nncn3n2)cc1)c1cc(F)ccc1F | – | inconclusive: 1.51%
14 | CCOC(=O)N1CCC(NC(=O)c2ccc3c(Cl)c4c(nc3c2)CCCC4)CC1 | inconclusive: 32.6 µM [falling, partial curve, poor fit] | –
15 | O=C(O)Cc1coc(-c2ccc(F)cc2)n1 | – | inconclusive: 26.5%
16 | CCCc1cc(-c2[nH]ncc2-c2ccc3c(c2)OCCCO3)c(O)cc1OC | inconclusive: 14.6 µM [rising, single point] | –
17 | CCc1ccccc1OCC(=O)OCC(=O)c1c(N)n(C)c(=O)n(C)c1=O | – | inconclusive: -4.76%
18 | O=C(c1cc(COc2ccc(F)cc2Cl)on1)N1CCN(c2cnccn2)CC1 | – | inactive: 3.53%
19 | Cc1ccc(CC(=O)O/N=C(\N)c2cccc([N+](=O)[O-])c2)cc1 | – | inconclusive: 15.3%
20 | CC(C)Oc1ccc(S(=O)(=O)N2CCOCC2)cc1NC(=O)CC1OC(=O)c2ccccc21 (stereo not given) | – | inconclusive: 2.82%
21 | COc1cccc(N2CC(C(=O)Oc3ccc4ccccc4c3)CC2=O)c1 (stereo not given) | inconclusive: 20.6 µM [falling, single point] | –
22 | O=C1N=C(N2C=CC(=C3C=CNC=C3)C=C2)/C(=C/N=NC(=O)c2ccccc2O)S1 | inconclusive: 35.5 µM [falling, single point] | –
23 | CCCNC(=O)c1cccc(C(F)(F)F)c1 | – | inconclusive: 3.73%
24 | Cc1csc(Nc2ccccc2C(F)(F)F)n1 | – | inconclusive: -0.0987%
25 | COc1ccc(N(C)S(=O)(=O)c2cccc(C(=O)Nc3cccc(C(=O)NC4CC4)c3)c2)cc1 | – | inconclusive: 6.87%
26 | CCCCN(C)C(=O)c1cc2cc3cc(OC)ccc3nc2o1 | – | inactive: 5.6%
27 | CN(C)c1nc2c(c(=O)[nH]c(=O)n2C)n1CCOc1ccccc1 | – | inactive: -10.3%

Row | SMILES | Potency | activity change, negative = inhibition
28 | O=C(CC1CS(=O)(=O)CC1CC(=O)Nc1ccc2c(c1)OCCO2)Nc1ccc2c(c1)OCCO2 (stereo not given) | – | inactive: -82.5%
29 | Cc1ccc(/C=C/C(=O)Nc2cccc(S(=O)(=O)N3CCOCC3)c2)o1 | – | inconclusive: 2.61%
30 | COc1ccc2nc(NC(=O)CN3C(=O)NC4(CCCC4)C3=O)sc2c1 | – | inconclusive: -0.223%
31 | CCN(CC)S(=O)(=O)c1ccc(N2CCOCC2)c(NC(=O)CCC2CCCCC2)c1 | – | inactive: 1.88%
32 | O=c1[nH]cnc2ccccc12 | – | inconclusive: -0.0734%
33 | COc1ccc(-c2cc(-c3ccc(OC)cc3)[nH]n2)cc1 | – | inconclusive: -16.3%
34 | CCOC(=O)C1=C(C)N=C2SCCC(=O)N2C1c1sccc1C (stereo not given) | – | inconclusive: 7.36%
35 | O=C(O)c1ccccc1-c1ccccc1C(=O)Nc1nccs1 | inconclusive: 14.1 µM [falling, partial curve, poor fit] | –
36 | O=C(NC(=S)N1CCCc2ccccc21)c1ccco1 | – | inconclusive: 10.6%
37 | COc1ccc(N2CCN(C(=O)CCCSc3nc4ccccc4[nH]3)CC2)cc1 | – | inconclusive: -2%
38 | CCOc1ccc2c(c1)C(C)=CC(C)(C)N2S(=O)(=O)c1ccc(NC(C)=O)cc1 | inconclusive: 14.1 µM [falling, partial curve, poor fit] | –
39 | CC(C)CNc1nc(Oc2ccc(=O)n(-c3ccccc3)n2)nc(N2CCOCC2)n1 | – | inactive: -12%
40 | O=C(CSc1nnc2ccccn12)c1ccc2c(c1)OCCO2 | – | inactive: 2.26%
41 | c1ccc(Nc2nc(N3CCCCC3)nc(N3CCCCC3)n2)cc1 | – | inactive: -11.4%
42 | Cc1ccc(Cl)c(Cn2cnc3c(cnn3C(C)(C)C)c2=O)c1F | – | inconclusive: 1.23%
43 | c1ccc(-c2nn3cnnc3c3ccccc23)cc1 | – | inconclusive: 0.658%
44 | CC(C)NC(=O)c1ccccc1NC(=O)C1COc2ccccc2O1 (stereo not given) | – | inconclusive: 19.3%
45 | S=C(NCc1ccco1)N1CCN(c2nc(-c3ccc(Cl)cc3)cs2)CC1 | inconclusive: 35.5 µM [rising, partial curve, poor fit] | –
46 | Cc1cccc(N(C)C(=S)Oc2ccc3ccccc3c2)c1 | – | inconclusive: 13.6%
47 | CS(=O)(=O)c1cnc(-c2ccccc2)nc1Sc1ccc(F)cc1 | – | inconclusive: 1%
48 | CCO[C@@H]1OC(C(=O)N2CCCCCCC2)=C[C@H](c2ccc(C(F)(F)F)cc2)[C@H]1CCCO | – | inconclusive: 14.5%
49 | CCOC(=O)c1nnn(CC(=O)N2N=C(c3ccccc3)CC2c2ccccc2)c1C(=O)OCC (stereo not given) | – | inactive: 3.42%
50 | COc1ccc(CCn2c(=N)c(C(=O)NCCN3CCOCC3)cc3c(=O)n4ccccc4nc32)cc1OC | – | inconclusive: 2.27%
51 | CC1CCc2c(C(=O)Nc3nccs3)csc2C1 (stereo not given) | inconclusive: 1.58 µM [rising, full curve, poor fit] | –
52 | Cc1ccc(-n2nc(C)c3c(C)c(CCC(=O)O)c(C)nc32)cc1 | – | inconclusive: -24.9%
53 | CCN(CC)c1ccc(/C=N/NC(=O)CC(C)C)cc1 | – | inconclusive: -3.93%
54 | CCOc1ccccc1CNC(=O)c1cc(-c2ccc(C)c(C)c2)nc2ccccc12 | – | inconclusive: -3.24%

Row | SMILES | Potency | activity change, negative = inhibition
55 | CC(C)c1nnc(NC(=O)Cc2ccc(Br)cc2)s1 | – | inconclusive: 3.06%
56 | CCOCCCN(C(=O)Cn1nnc(-c2ccc(C)o2)n1)C(C(=O)NC1CCCC1)c1ccc(C)o1 (stereo not given) | – | inconclusive: 14.1%
57 | COC(=O)c1c(NC(=O)/C=C/C(=O)O)sc(C)c1-c1ccc(C)c(C)c1 | – | inconclusive: -2.61%
58 | CCCCSc1nc(O)c(C2OC(=O)c3c2ccc(OC)c3OC)c(=O)n1-c1ccccc1 (stereo not given) | inconclusive: 0.731 µM [rising, full curve, poor fit] | –
59 | NC(=O)c1oc2ccccc2c1NC(=O)c1nc2ccccc2s1 | – | inconclusive: -1.9%
60 | CCc1nnc(NS(=O)(=O)c2ccc(NC(=S)NC(=O)c3cccs3)cc2)s1 | – | inconclusive: 14.9%
61 | Cc1ccccc1CNC(=O)c1cc(COc2ccc(F)cc2F)on1 | inconclusive: 35.5 µM [falling, single point] | –
62 | Cc1ccc(/C=C2/C(=O)c3ccc(C(=O)O)cc3C2=O)o1 | inconclusive: 17.8 µM [falling, partial curve] | –
63 | CC(C)CCn1cnc2c(cnn2-c2ccc(F)cc2)c1=O | – | inconclusive: 7.82%
64 | COc1ccc(N(CC(=O)Nc2ccccc2C(=O)NCCc2ccccc2)S(C)(=O)=O)cc1OC | inconclusive: 6.51 µM [falling, single point] | –
65 | Cc1nnc(NC(=O)CCCCCN2C(=O)C3C4C=CC(C4)C3C2=O)s1 (stereo not given) | – | inactive: -1.4%
66 | Cc1cc(C)cc(OCC(=O)OCC(=O)c2ccc3c(c2)NC(=O)CO3)c1 | – | inconclusive: 14.6%
67 | CC(C)Cc1ccc(C(C)C(N)=NCCc2ccccc2)cc1 (stereo not given) | inconclusive: 35.5 µM [falling, single point] | –
68 | Cc1ccc(-c2noc(-c3ccccc3C(=O)NCC3CCCO3)n2)cc1 (stereo not given) | – | inconclusive: -1.63%
69 | CC(=NC1CCCCC1)C1=C(O)c2ccccc2C1=O | inconclusive: 20 µM [falling, partial curve, poor fit] | –
70 | Cc1cc(C)c(C(=O)N2CCCC(C(=O)c3cc(F)ccc3F)C2)o1 (stereo not given) | – | inconclusive: 10.7%
71 | C=CCn1c(SCC(=O)Nc2ccc(N3CCOCC3)cc2)nnc1-c1ccco1 | – | inactive: -1.5%
72 | Cc1cc(C(=O)N/N=C/C=C/c2ccc3c(c2)OCO3)n[nH]1 | inconclusive: 11.2 µM [falling, partial curve, poor fit] | –
73 | CCc1cccc(NC(=O)CCSCCC(=O)Nc2cccc(CC)c2)c1 | inconclusive: 25.9 µM [falling, single point] | –
74 | CN(C(=O)c1ccc2c(c1)OCO2)C1(C(=O)NC2CCCCC2)CCCCC1 | – | inactive: 4.69%
75 | COc1cc2ncnc(NCc3ccc(F)cc3)c2cc1OC | – | inconclusive: -2.54%
76 | Cc1c(C(=O)NCc2ccc3c(c2)OCO3)oc2ccc(S(=O)(=O)N3CCCC3)cc12 | – | inconclusive: -17.9%
77 | Cc1ccc(Cl)cc1C1=CC(=O)C[C@H](c2ccc(F)cc2)C1 | – | inconclusive: 14%
78 | O=C(NNC(=S)NCc1ccc(Cl)cc1)c1ccc(Br)o1 | inconclusive: 35.5 µM [falling, single point] | –
79 | CCCCN1C(=O)N(CCc2ccc(F)cc2)S(=O)(=O)c2cc(C(F)(F)F)ccc21 | – | inactive: 7.17%
80 | COc1cc2c(=O)n(CCC(=O)NCC3CCCO3)c(=O)n(CC(=O)Nc3ccc(F)cc3)c2cc1OC (stereo not given) | inconclusive: 11.2 µM [falling, partial curve] | –

For convenience, 17 of the compounds above.
Row | SMILES | Potency | activity change, negative = inhibition
50 | COc1ccc(CCn2c(=N)c(C(=O)NCCN3CCOCC3)cc3c(=O)n4ccccc4nc32)cc1OC | – | inconclusive: 2.27%
51 | CC1CCc2c(C(=O)Nc3nccs3)csc2C1 (stereo not given) | inconclusive: 1.58 µM [rising, full curve, poor fit] | –
52 | Cc1ccc(-n2nc(C)c3c(C)c(CCC(=O)O)c(C)nc32)cc1 | – | inconclusive: -24.9%
53 | CCN(CC)c1ccc(/C=N/NC(=O)CC(C)C)cc1 | – | inconclusive: -3.93%
54 | CCOc1ccccc1CNC(=O)c1cc(-c2ccc(C)c(C)c2)nc2ccccc12 | – | inconclusive: -3.24%
55 | CC(C)c1nnc(NC(=O)Cc2ccc(Br)cc2)s1 | – | inconclusive: 3.06%
56 | CCOCCCN(C(=O)Cn1nnc(-c2ccc(C)o2)n1)C(C(=O)NC1CCCC1)c1ccc(C)o1 (stereo not given) | – | inconclusive: 14.1%
57 | COC(=O)c1c(NC(=O)/C=C/C(=O)O)sc(C)c1-c1ccc(C)c(C)c1 | – | inconclusive: -2.61%
58 | CCCCSc1nc(O)c(C2OC(=O)c3c2ccc(OC)c3OC)c(=O)n1-c1ccccc1 (stereo not given) | inconclusive: 0.731 µM [rising, full curve, poor fit] | –
59 | NC(=O)c1oc2ccccc2c1NC(=O)c1nc2ccccc2s1 | – | inconclusive: -1.9%
60 | CCc1nnc(NS(=O)(=O)c2ccc(NC(=S)NC(=O)c3cccs3)cc2)s1 | – | inconclusive: 14.9%
61 | Cc1ccccc1CNC(=O)c1cc(COc2ccc(F)cc2F)on1 | inconclusive: 35.5 µM [falling, single point] | –
62 | Cc1ccc(/C=C2/C(=O)c3ccc(C(=O)O)cc3C2=O)o1 | inconclusive: 17.8 µM [falling, partial curve] | –
63 | CC(C)CCn1cnc2c(cnn2-c2ccc(F)cc2)c1=O | – | inconclusive: 7.82%
64 | COc1ccc(N(CC(=O)Nc2ccccc2C(=O)NCCc2ccccc2)S(C)(=O)=O)cc1OC | inconclusive: 6.51 µM [falling, single point] | –
65 | Cc1nnc(NC(=O)CCCCCN2C(=O)C3C4C=CC(C4)C3C2=O)s1 (stereo not given) | – | inactive: -1.4%
66 | Cc1cc(C)cc(OCC(=O)OCC(=O)c2ccc3c(c2)NC(=O)CO3)c1 | – | inconclusive: 14.6%
